Data from the supplement of paper PMC6411743.
± gives the standard deviation of the averaged measurements. The list shows a part of the results, in another mix than the full data. Small differences around the control level are noise.

By UniProt entry, the sequences of proteins in these tests, tags left out. Where a name states a change or a piece, a line headed by the entry shows the natural chain unless it says otherwise.
UniProt P49585: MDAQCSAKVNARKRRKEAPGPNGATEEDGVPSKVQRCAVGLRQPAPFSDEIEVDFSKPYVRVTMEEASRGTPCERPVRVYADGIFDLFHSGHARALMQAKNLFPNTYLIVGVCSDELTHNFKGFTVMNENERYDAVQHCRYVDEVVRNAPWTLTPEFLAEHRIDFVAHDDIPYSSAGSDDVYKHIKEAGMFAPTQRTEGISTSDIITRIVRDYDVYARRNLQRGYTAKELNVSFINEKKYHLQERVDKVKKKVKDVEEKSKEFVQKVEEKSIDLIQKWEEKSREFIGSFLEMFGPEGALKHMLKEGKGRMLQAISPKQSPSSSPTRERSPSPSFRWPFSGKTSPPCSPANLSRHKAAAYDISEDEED
UniProt Q9UPW0: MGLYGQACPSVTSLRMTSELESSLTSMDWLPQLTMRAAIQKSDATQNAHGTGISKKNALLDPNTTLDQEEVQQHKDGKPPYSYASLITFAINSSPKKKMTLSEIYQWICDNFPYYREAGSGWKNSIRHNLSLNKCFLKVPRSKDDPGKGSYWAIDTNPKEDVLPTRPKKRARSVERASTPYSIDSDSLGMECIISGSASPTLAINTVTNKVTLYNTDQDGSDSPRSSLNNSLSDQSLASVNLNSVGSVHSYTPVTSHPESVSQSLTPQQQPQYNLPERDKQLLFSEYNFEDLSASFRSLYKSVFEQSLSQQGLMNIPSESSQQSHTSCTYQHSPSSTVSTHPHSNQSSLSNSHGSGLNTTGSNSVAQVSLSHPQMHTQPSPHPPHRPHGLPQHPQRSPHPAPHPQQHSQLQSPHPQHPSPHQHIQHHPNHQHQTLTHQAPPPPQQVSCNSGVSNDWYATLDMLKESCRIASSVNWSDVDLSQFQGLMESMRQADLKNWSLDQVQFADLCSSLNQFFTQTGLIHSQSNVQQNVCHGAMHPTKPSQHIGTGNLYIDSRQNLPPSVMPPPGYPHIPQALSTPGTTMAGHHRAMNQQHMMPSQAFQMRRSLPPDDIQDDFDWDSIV
UniProt P40616: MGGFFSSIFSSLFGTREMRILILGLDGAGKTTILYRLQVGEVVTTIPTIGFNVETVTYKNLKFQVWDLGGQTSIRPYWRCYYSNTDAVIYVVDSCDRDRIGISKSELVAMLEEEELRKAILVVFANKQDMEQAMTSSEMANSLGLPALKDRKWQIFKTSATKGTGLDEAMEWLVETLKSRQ
UniProt A2RTX5: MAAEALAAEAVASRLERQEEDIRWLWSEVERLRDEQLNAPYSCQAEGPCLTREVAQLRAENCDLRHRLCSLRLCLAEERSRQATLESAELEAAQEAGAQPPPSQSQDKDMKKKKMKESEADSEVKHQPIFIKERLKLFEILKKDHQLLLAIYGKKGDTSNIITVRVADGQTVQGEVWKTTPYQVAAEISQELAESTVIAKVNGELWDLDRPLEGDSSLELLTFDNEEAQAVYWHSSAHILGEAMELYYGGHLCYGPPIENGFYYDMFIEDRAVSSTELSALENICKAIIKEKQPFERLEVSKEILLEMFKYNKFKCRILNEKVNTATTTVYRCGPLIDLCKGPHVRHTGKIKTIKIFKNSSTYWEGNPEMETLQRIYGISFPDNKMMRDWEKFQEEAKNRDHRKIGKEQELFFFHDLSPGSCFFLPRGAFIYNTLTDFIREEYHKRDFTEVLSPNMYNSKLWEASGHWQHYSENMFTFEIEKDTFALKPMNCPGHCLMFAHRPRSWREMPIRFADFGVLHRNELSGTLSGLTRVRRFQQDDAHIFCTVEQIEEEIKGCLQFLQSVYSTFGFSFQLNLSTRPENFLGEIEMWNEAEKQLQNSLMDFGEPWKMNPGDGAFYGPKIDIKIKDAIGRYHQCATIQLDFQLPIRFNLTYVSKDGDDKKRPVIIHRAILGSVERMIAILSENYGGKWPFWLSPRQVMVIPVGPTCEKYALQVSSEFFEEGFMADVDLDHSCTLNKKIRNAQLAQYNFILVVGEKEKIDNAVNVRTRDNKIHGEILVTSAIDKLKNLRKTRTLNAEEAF
UniProt O43847: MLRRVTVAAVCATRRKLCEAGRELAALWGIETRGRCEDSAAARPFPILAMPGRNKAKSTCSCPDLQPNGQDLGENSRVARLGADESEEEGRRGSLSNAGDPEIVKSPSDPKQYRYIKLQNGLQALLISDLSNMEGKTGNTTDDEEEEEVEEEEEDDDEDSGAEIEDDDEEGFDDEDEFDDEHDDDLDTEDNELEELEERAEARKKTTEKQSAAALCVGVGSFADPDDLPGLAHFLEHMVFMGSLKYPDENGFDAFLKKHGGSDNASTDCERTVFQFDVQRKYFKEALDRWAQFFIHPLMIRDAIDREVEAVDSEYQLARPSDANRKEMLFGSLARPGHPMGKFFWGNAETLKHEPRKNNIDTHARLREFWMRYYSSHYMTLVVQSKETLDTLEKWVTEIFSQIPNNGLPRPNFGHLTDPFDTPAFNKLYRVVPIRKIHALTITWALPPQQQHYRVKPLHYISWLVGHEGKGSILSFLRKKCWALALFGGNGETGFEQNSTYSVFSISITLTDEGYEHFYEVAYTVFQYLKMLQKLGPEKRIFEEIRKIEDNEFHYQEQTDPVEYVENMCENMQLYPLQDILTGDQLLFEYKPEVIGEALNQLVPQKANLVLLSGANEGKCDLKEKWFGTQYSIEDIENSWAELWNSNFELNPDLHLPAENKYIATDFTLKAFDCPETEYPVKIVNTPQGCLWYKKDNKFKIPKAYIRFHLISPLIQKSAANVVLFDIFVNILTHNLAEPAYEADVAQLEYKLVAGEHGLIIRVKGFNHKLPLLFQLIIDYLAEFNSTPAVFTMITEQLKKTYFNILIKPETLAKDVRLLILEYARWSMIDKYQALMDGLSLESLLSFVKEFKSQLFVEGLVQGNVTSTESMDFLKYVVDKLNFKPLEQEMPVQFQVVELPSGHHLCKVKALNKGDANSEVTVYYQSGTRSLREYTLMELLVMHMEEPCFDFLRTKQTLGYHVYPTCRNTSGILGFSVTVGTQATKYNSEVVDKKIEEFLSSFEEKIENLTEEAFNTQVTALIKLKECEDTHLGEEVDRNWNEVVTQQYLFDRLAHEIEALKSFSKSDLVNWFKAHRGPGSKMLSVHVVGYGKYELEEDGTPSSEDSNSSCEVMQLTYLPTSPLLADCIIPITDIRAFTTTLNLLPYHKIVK
UniProt Q6UB35, whole entry: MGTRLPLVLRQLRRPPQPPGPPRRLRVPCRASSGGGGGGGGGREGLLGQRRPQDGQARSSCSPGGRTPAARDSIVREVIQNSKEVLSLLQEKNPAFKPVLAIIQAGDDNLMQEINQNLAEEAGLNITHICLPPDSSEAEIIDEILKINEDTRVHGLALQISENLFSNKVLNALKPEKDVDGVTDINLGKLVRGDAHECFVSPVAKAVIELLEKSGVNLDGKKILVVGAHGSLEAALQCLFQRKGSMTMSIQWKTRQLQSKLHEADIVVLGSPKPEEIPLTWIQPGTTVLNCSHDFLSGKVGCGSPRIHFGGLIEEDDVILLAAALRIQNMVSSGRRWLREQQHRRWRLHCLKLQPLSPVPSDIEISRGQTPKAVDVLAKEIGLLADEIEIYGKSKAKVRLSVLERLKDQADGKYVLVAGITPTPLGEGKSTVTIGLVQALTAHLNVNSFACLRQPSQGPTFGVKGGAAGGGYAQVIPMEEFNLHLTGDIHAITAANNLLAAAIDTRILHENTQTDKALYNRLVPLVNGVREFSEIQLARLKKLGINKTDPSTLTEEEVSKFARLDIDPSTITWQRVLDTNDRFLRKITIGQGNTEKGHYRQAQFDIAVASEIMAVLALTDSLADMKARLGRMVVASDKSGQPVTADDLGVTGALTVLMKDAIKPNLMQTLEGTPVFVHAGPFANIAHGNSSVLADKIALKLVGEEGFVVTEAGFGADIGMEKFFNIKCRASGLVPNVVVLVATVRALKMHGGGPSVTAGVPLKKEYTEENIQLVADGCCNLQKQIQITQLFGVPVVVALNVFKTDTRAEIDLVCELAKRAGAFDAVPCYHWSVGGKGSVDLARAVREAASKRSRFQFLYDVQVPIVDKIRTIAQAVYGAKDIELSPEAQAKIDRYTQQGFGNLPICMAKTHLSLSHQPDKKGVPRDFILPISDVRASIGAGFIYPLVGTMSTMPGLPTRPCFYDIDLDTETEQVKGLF
UniProt A6QL63: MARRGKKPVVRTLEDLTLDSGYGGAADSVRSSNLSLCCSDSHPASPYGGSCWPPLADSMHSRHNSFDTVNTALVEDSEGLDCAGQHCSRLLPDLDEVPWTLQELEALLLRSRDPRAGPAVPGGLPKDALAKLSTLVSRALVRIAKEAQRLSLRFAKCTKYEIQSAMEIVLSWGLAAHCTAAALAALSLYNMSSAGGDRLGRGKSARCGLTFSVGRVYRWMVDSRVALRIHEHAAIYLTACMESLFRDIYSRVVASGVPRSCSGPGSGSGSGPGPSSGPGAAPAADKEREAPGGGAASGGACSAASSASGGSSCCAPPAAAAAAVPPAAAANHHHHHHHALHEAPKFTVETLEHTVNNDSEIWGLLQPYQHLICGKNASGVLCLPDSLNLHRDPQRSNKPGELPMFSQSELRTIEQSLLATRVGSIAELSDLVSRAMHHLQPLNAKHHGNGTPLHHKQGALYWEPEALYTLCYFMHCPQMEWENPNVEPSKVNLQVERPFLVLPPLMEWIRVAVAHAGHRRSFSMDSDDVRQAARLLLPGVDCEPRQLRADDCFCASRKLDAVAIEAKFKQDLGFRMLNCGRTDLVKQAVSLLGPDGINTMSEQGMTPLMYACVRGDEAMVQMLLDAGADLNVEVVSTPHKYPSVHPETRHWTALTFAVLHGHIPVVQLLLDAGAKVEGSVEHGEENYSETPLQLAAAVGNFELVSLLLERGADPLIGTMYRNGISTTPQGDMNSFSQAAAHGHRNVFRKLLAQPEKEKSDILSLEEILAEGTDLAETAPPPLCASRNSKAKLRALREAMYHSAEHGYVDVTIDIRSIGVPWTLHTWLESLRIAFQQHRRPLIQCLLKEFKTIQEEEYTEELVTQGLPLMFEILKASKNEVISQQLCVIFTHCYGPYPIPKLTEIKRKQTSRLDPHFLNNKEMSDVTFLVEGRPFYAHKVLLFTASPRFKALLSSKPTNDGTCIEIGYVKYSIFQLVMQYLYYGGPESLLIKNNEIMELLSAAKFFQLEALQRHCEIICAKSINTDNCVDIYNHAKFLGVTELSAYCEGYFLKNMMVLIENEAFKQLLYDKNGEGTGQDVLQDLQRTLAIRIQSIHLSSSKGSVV
UniProt A4D1E9: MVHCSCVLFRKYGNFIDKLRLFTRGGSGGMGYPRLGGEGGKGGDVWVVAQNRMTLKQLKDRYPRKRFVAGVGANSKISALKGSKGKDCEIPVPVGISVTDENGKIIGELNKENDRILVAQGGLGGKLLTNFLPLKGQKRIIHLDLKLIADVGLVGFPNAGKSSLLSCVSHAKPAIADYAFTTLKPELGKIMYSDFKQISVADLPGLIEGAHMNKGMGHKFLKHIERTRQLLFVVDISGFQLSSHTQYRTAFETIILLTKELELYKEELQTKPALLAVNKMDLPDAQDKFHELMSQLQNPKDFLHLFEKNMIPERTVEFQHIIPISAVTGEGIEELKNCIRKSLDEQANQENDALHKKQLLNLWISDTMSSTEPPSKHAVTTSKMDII
UniProt Q8TCN5: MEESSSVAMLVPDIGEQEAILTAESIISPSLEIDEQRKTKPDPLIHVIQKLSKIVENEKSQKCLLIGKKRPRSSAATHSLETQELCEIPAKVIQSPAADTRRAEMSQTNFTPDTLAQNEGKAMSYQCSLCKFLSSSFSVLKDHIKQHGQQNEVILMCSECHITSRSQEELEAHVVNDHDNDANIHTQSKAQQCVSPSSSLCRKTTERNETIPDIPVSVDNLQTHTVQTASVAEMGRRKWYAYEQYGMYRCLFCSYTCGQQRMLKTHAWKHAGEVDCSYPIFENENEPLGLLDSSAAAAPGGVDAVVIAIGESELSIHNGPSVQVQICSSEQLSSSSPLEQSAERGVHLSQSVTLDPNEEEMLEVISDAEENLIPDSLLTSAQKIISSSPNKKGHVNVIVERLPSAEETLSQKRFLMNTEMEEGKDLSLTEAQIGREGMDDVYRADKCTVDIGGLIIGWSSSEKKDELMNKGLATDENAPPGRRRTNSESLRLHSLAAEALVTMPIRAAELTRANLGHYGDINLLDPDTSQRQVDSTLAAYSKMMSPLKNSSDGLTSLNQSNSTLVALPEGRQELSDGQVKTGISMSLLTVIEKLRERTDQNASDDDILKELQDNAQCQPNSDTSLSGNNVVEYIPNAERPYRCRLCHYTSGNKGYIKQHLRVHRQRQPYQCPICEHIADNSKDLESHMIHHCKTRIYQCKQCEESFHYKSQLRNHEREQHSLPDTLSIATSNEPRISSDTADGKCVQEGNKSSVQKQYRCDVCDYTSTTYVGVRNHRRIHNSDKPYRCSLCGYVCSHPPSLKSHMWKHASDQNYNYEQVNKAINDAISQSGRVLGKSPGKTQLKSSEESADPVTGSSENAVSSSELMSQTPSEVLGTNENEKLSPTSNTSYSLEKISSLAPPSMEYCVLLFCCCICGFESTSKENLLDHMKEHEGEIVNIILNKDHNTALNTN

Compound: Nc1ncnc2c1ncn2[C@@H]1O[C@H](COP(=O)(O)OP(=O)(O)NP(=O)(O)O)[C@@H](O)[C@H]1O [adenylyl imidodiphosphate]
Assay: NP40-soluble protein abundance relative to vehicle (solubility fold change) (ratio); higher = more soluble protein in presence of AMP-PNP
In short: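 Crude Jurkat lysate, prepared by Dounce homogenisation, was exposed to eight concentrations from 0.1 to 10 mM for 10 min at room temperature and then 3 min at 37 °C. Solubilisation used 0.8% NP40 with benzonase for 60 min at 4 °C, followed by ultracentrifugation and TMT labelling of the supernatant for LC-MS/MS. After vsn normalisation of intensities, each value is the fold change against the detergent-processed vehicle within each replicate, across three independent experiments.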

Target	NP40-soluble protein abundance (concentration: 0.1mM)	NP40-soluble protein abundance (concentration: 0.5mM)
C9JUL4 and related entries (UniProt Q9UDY4)	0.965 ± 0.05	1 ± 0.022
B0QXZ5 and related entries (UniProt O96015)	1.01 ± 0.019	0.999 ± 0.012
C9JIF9 and related entries (UniProt P13798)	0.988 ± 0.012	0.949 ± 0.037
C9JEJ2 and related entries (UniProt P49585)	1.02 ± 0.018	0.992 ± 0.028
A8MVZ6 and related entries (UniProt Q96G01)	1.01 ± 0.0047	0.982 ± 0.031
D6RHU3 and related entries (UniProt P55212)	1.01 ± 0.038	0.977 ± 0.069
A6NIW2 and related entries (UniProt Q5JSL3)	0.999 ± 0.048	0.937 ± 0.06
C9JVP0 and related entries (UniProt Q9UPW0)	0.9936 ± 0.0081	0.997 ± 0.0039
B4DZG7 and related entries (UniProt P40616)	1.03 ± 0.036	1.06 ± 0.17
D6RG18 and related entries (UniProt P51946)	1.03 ± 0.018	1.05 ± 0.054
E5RGN3 and related entries (UniProt O00244)	0.958 ± 0.01	0.996 ± 0.047
CCDC85C (UniProt A6NKD9)	0.995 ± 0.021	0.984 ± 0.028
A8MX75 and related entries (UniProt P18074)	1.04 ± 0.028	1 ± 0.033
B1ALH6 and related entries (UniProt O14832)	0.971 ± 0.024	0.971 ± 0.021
A6NCE7 and related entries (UniProt Q9GZQ8+H3BTL1+A6NCE7)	1.02 ± 0.054	1.01 ± 0.021
B8ZZQ6 and related entries (UniProt P06454)	0.989 ± 0.044	1.02 ± 0.053
UniProt A2RU67	0.9912 ± 0.005	1.01 ± 0.021
D6RHH4 and related entries (UniProt P63244)	1.05 ± 0.018	0.989 ± 0.084
UniProt A2RTX5 and related entries	1.06 ± 0.013	1.02 ± 0.022
B1AKJ5 and related entries (UniProt O43847)	0.9988 ± 0.0069	0.999 ± 0.034
A8K878 and related entries (UniProt P55145)	0.976 ± 0.027	1.03 ± 0.051
C5orf51 (UniProt A6NDU8)	0.991 ± 0.029	0.991 ± 0.015

Copied from the list:
A8MVZ6 and related entries (UniProt Q96G01) – NP40-soluble protein abundance (concentration: 0.1mM): 1.01 ± 0.0047
C9JIF9 and related entries (UniProt P13798) – NP40-soluble protein abundance (concentration: 0.5mM): 0.949 ± 0.037
D6RHU3 and related entries (UniProt P55212) – NP40-soluble protein abundance (concentration: 0.5mM): 0.977 ± 0.069

Later entries

Target	NP40-soluble protein abundance (concentration: 0.1mM)	NP40-soluble protein abundance (concentration: 0.5mM)
B1AKP1 and related entries (UniProt O60636)	1.03 ± 0.012	1 ± 0.019
B5MDE0 and related entries (UniProt Q96AA3)	1.02 ± 0.069	0.967 ± 0.1
C9J9F4 and related entries (UniProt Q9Y4C2)	0.997 ± 0.036	0.981 ± 0.057
D6RBY0 and related entries (UniProt Q8TAC1)	1.005 ± 0.0053	0.999 ± 0.014
B7WPL0 and related entries (UniProt Q9NVN3)	1.02 ± 0.022	0.997 ± 0.021
D6REX3 and related entries (UniProt O94979)	0.998 ± 0.033	1 ± 0.027
B2RA97 and related entries (UniProt Q9Y5N5)	1 ± 0.041	1.01 ± 0.04
B7ZM99 and related entries (UniProt Q6UB35)	0.996 ± 0.015	0.995 ± 0.044
A8MTY9 and related entries (UniProt O14972)	1.03 ± 0.022	0.9957 ± 0.0097
A6NMH8 and related entries (UniProt P60033)	0.97 ± 0.038	0.97 ± 0.04
UniProt A6QL63 and related entries	0.978 ± 0.019	1.01 ± 0.047
B4E1G1 and related entries (UniProt Q9BUN8)	0.9824 ± 0.0037	0.999 ± 0.014
GTPBP10 (UniProt A4D1E9)	0.988 ± 0.013	1.01 ± 0.013
D6REA0 and related entries (UniProt O75879)	0.966 ± 0.018	0.9639 ± 0.0049
B9EGE7 and related entries (UniProt Q8TCN5)	0.969 ± 0.015	0.952 ± 0.032
C9JJ19 and related entries (UniProt P82930)	1.07 ± 0.028	1.03 ± 0.038
MYO1G (UniProt B0I1T2)	1.11 ± 0.045	1.09 ± 0.089
B9EGA3 and related entries (UniProt Q92925)	1.02 ± 0.02	1.01 ± 0.043
C9J712 and related entries (UniProt P35080)	1.01 ± 0.046	1.07 ± 0.092
D3YTB1 and related entries (UniProt P62910)	1.03 ± 0.064	1.02 ± 0.071
C9JHH7 and related entries (UniProt Q8WUX1)	1.014 ± 0.0013	1.02 ± 0.014
